{"source": "patent US10758539B2", "about": "“Therapeutic compounds and uses thereof” (Kala Pharmaceuticals, Inc., priority 2013, dated 2020)", "experiment": "Particle size of compounds milled with PLURONIC F127 as MPP, by dynamic light scattering", "assay_type": "physicochemical", "details": "formulated as MPP, milled with PLURONIC F127, buffered with DPBS", "text": "The compounds of the present invention synthesized in accordance with the preceding Examples were formulated as mucus penetrating particles (MPP). Specifically, Compound 4 of Example 1, Compound 9 of Example 2, and Compound 13 of Example 3 were each milled in the presence of PLURONIC F127 (F127) to determine whether F127 1) aids particle size reduction to several hundreds of nanometers and 2) physically (non-covalently) coats the surface of generated nanoparticles with a mucoinert coating that would minimize particle interactions with mucus constituents and prevent mucus adhesion.\nA milling procedure was employed in which an aqueous dispersion containing coarse drug particles and PLURONIC F127 (F127) was milled with grinding medium until particle size was reduced below 400 nm as measured by dynamic light scattering. Table 4 lists the size of particles and polydispersity index (a measure of the width of the particle size distribution) generated using this technique. In this example suspensions were buffered using DPBS (Dulbecco's Phosphate-Buffered Saline) which yields a suspension that is both isotonic and has a physiologically relevant pH.", "note": "At least one compound was matched to its structure with a doubt left.", "data": [{"smiles": "COc1cc2c(Oc3ccc4[nH]c(C)cc4c3F)ncnc2cc1OCCCC(=O)N1CCC2(CC1)COC2", "note": "[Compound 9, 4-(4-(4-Fluoro-2-methyl-1H-indol-5-yloxy)-6-methoxyquinazolin-7-yloxy)-1-(2-oxa-7-azaspiro[3.5]nonanyl)butan-1-one]", "values": [{"measurement": "Particle Size", "value": 195, "unit": "nm"}, {"measurement": "Polydispersity Index (PDI)", "value": 0.176}]}]}
